Source: US20260234559A1
Results are given in words; binding and its absence hold for the method and conditions named. Some results given as binding are weak or reduced against the parent protein; the word gives no strength. For part of these data: Tags and fused reporters may be left off the sequences shown. One block for each binder: values may come before it.

By UniProt entry, the sequences of proteins in these tests, tags left out. Where a name states a change or a piece, a line headed by the entry shows the natural chain unless it says otherwise. Residues count along the entry.
UniProt P28906, residues 32-290: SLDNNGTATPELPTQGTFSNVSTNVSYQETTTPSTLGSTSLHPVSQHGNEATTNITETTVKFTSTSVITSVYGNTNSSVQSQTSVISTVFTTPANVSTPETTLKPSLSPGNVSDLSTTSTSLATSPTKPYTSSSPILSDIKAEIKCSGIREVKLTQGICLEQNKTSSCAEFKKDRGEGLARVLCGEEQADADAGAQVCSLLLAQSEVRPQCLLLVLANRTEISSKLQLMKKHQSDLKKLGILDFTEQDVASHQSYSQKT

Key:
[1] = target: recombinant Human CD34-Fc tagged fusion protein (cat 10103-H02H, Sino Biological) (human) (UniProt P28906); assay: flow cytometry; scFv on transduced Tregs stained with soluble CD34-Fc and anti-human Alexa Fluor 647
[2] = target: recombinant Human CD34-Fc tagged fusion protein (cat 10103-H02H, Sino Biological) (human) (UniProt P28906); assay: flow cytometry; scFv on transduced Tregs incubated with soluble CD34-Fc, detected with secondary anti-Fc antibody
[3] = target: recombinant Human CD34-Fc tagged fusion protein (cat 10103-H02H, Sino Biological) (human) (UniProt P28906); assay: flow cytometry; scFv on cells, detected by two-step staining with CD34 Fc-Tagged and anti-human IgG (method in paragraph 263)

B2: 34-m-scFv with Linker_3 (QBEND/10 anti-CD34 scFv, linker encoded by SEQ ID NO: 33) (scFv, V domains shown)
VH: QVQLVQSGAELVKPGASVKMSCKASGYTFTSYVIHWVKQKPGQGLEWLGYTNPYNDVTKYNEKFKFKATLTSDTSSTTAYMEFSSLTSEDSAVYYCARYGGLWLYAMDYWGQGTSVTVSS
VL: QLVLTQSPSASFSLGASAKLTCTLSSQHRTFTIEWYQQQPEKPPKYVMELRKDGSHSKGDGIPDRFSGSSSGADRYLSISSIQPEDEAIYICGVGNTIKEQFVYVFGTGTKVTVL
- binding [3]: binds

B4: 34-m-scFv with Linker_2 (QBEND/10 anti-CD34 scFv, linker encoded by SEQ ID NO: 32) (scFv, V domains shown)
VH: B2 VH
VL: B2 VL
- binding [3]: binds

B5: 34-m-scFv with Linker_4 (QBEND/10 anti-CD34 scFv, linker encoded by SEQ ID NO: 34) (scFv, V domains shown)
VH: B2 VH
VL: B2 VL
- binding [3]: binds

Other lines, results leading:

- binding [1]: binds
- binding [2]: binds
B1: 34-m-scFv (non-activating CD34-targeting scFv derived from QBEND/10 anti-CD34, on human CD28 hinge with myc-tag and CD28 transmembrane domain, expressed on … (scFv, V domains shown)
VH: B2 VH
VL: B2 VL

- binding [3]: binds
B3: 34-m-scFv with Linker_1 (QBEND/10 anti-CD34 scFv, linker encoded by SEQ ID NO: 31) (scFv, V domains shown)
VH: B2 VH
VL: B2 VL
